# From patent US8987320B2, “Solid salt forms of a pyrrole substituted 2-indolinone” (Zoetis LLC, priority 2005, dated 2015)
# Some results were stated once for a whole list of compounds, not compound by compound.
# Test: Dynamic moisture sorption gravimetry (DMSG) of salts of Compound I
# Type: physicochemical
# Description: Dynamic Moisture Sorption Gravimetry (DMSG).
# DMSG isotherm was collected on a temperature controlled atmospheric microbalance. Approximately 10 mg samples were placed in the sample pan of the balance. The humidity was sequentially varied from room relative humidity (RH) to 0% RH and was then increased to 90% RH followed by a decrease of RH to 0% again in 3% RH steps. The mass was then measured every two minutes. The RH was stepped to the next target value when change of the sample mass was less than 0.5 μg in 10 min. The Visual Basic program dmsgscn2.exe was used to control the data collection and export the information to an Excel spreadsheet.
compound,measurement,value
Cc1[nH]c(/C=C2\C(=O)Nc3ccc(F)cc32)c(C)c1C(=O)NCCN1CCCC1.O=C(O)CC(O)(CC(=O)O)C(=O)O [Compound I citrate],water absorbed at 70% relative humidity,less than 3%
Cc1[nH]c(/C=C2\C(=O)Nc3ccc(F)cc32)c(C)c1C(=O)NCCN1CCCC1 [Compound I phosphate],water absorbed at 70% relative humidity,less than 3%
